Positions count from the first letter of the chain named. These are yes or no findings as the source states them, for the method shown. For some assays here: In cells and extracts the contact can be indirect. Some binding calls cover weakened binding; strength is not graded here. For some assays here: Where a sequence is shown, tags or fusion partners need not be part of it.

For assay [1], the target named is T1, SEPT9_i3-β10 and SEPT9_i3-β11 (wild-type SEPT9 isoform 3 fused to GFP strand β10 or β11) (human), Q9UHD8.
T1 chain: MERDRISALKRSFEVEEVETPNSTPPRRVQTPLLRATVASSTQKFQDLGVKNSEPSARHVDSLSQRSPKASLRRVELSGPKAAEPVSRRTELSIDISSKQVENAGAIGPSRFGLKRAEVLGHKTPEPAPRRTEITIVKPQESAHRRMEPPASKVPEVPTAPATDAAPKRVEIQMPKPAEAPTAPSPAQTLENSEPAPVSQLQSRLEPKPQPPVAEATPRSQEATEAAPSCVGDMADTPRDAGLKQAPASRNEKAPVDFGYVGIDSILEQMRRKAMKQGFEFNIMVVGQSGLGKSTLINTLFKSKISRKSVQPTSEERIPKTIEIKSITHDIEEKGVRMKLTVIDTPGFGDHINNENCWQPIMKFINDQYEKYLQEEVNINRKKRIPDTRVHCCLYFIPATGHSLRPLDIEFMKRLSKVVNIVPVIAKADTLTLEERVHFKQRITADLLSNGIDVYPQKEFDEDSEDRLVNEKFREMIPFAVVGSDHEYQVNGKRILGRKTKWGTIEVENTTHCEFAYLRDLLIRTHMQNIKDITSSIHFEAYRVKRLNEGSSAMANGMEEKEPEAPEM
Put plainly: split reporter. Particulars: remark: other sources report otherwise.

The target of assay [2] is T2, recombinant human septin hexamers with wild-type SEPT2-msfGFP (SEPT2-SEPT6-SEPT7-SEPT7-SEPT6-SEPT2) (human) (UniProt Q15019).
T2 sequence 1: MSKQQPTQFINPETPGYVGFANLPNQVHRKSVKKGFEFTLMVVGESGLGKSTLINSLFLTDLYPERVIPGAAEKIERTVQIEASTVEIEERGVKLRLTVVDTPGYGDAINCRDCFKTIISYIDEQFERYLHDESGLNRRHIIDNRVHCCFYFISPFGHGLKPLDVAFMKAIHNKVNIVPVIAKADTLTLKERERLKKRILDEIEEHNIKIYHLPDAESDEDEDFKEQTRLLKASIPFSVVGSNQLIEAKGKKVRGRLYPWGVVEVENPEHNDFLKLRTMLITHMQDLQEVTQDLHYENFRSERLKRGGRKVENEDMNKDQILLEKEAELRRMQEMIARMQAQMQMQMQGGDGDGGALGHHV
T2 sequence 2: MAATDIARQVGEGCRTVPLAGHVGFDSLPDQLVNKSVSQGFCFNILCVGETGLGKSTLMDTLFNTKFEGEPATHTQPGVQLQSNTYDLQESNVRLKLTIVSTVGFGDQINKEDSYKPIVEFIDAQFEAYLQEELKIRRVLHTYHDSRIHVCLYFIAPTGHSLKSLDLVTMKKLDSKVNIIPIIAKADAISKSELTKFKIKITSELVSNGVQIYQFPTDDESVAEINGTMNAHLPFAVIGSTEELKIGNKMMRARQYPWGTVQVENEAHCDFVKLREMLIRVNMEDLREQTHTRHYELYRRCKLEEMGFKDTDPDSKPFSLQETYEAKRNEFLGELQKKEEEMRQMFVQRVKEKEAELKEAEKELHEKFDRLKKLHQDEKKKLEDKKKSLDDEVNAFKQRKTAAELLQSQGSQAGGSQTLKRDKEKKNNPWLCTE
T2 sequence 3: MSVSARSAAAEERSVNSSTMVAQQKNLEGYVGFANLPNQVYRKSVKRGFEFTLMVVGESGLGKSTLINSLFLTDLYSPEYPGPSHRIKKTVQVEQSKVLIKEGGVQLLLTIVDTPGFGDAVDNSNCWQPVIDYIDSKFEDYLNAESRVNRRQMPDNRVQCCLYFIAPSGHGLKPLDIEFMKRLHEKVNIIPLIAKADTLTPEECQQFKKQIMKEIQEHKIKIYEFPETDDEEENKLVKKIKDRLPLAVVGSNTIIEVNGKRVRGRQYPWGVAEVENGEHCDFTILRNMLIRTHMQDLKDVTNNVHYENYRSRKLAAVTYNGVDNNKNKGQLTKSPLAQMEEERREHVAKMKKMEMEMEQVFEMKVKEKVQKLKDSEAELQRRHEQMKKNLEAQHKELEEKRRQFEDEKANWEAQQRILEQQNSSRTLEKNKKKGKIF
The experiment in a line: fluorescence microscopy of reconstituted septin filaments.

Assay [3] addresses T3, SEPT7 (endogenous, U2OS) (human (endogenous in U2OS)) (UniProt Q16181).
T3 sequence: T2 sequence 3
Put plainly: native gel or EMSA. In general terms: In EMSA bound probe runs differently from free probe, usually more slowly.

Assay [4] addresses T4, msfGFP-SEPT7Gmut1 (SEPT7 W269A, H279D) (human) (UniProt Q16181).
T4 sequence: T2 sequence 3 with W269A, H279D
The experiment in a line: native gel or EMSA.

For assay [5], the target named is T5, msfGFP-SEPT7Gmut2 (SEPT7 H279D) (human) (UniProt Q16181).
T5 sequence: T2 sequence 3 with H279D
Put plainly: native gel or EMSA.

B1: SEPT9_i3-β10 and SEPT9_i3-β11 (wild-type SEPT9 isoform 3 fused to GFP strand β10 or β11), Q9UHD8-2 1-568 (protein)
chain: T1 chain
Take B1: the binding result in assay [1] is given as “binds”.

B2: recombinant human septin hexamers with wild-type SEPT2-msfGFP (SEPT2-SEPT6-SEPT7-SEPT7-SEPT6-SEPT2) (complex, UniProt Q15019;Q14141;Q16181)
chain 1: T2 sequence 1
chain 2: T2 sequence 2
chain 3: T2 sequence 3
Consider B2, for which the binding entry in assay [2] was “binds”.

B3: SEPT9 (endogenous, U2OS) (protein, UniProt Q9UHD8 1-586)
chain: MKKSYSGGTRTSSGRLRRLGDSSGPALKRSFEVEEVETPNSTPPRRVQTPLLRATVASSTQKFQDLGVKNSEPSARHVDSLSQRSPKASLRRVELSGPKAAEPVSRRTELSIDISSKQVENAGAIGPSRFGLKRAEVLGHKTPEPAPRRTEITIVKPQESAHRRMEPPASKVPEVPTAPATDAAPKRVEIQMPKPAEAPTAPSPAQTLENSEPAPVSQLQSRLEPKPQPPVAEATPRSQEATEAAPSCVGDMADTPRDAGLKQAPASRNEKAPVDFGYVGIDSILEQMRRKAMKQGFEFNIMVVGQSGLGKSTLINTLFKSKISRKSVQPTSEERIPKTIEIKSITHDIEEKGVRMKLTVIDTPGFGDHINNENCWQPIMKFINDQYEKYLQEEVNINRKKRIPDTRVHCCLYFIPATGHSLRPLDIEFMKRLSKVVNIVPVIAKADTLTLEERVHFKQRITADLLSNGIDVYPQKEFDEDSEDRLVNEKFREMIPFAVVGSDHEYQVNGKRILGRKTKWGTIEVENTTHCEFAYLRDLLIRTHMQNIKDITSSIHFEAYRVKRLNEGSSAMANGMEEKEPEAPEM
On to B3, for which the binding result in assay [3] was “binds”; in assay [4], “no binding”; in assay [5], “binds”.

(Values after paper doi:10.1101/2022.02.23.481653.)
